Data: US20260209346A1 (LTZ THERAPEUTICS, published 2026)
These are yes or no findings as the source states them, for the method shown. Some binding calls cover weakened binding; strength is not graded here.

Legend:
[1] = molecular target: T1, human CD79b recombinant protein (human, UniProt P40259 29-159); assay: ELISA on recombinant human CD79b ECD; A 450nm
T1 construct: also called human CD79b ECD antigen; recombinant human CD79b ECD
T1 sequence: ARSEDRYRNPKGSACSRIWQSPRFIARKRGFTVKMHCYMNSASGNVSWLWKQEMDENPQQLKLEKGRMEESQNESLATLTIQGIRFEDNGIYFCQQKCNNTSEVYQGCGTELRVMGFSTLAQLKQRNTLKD

[2] = molecular target: CD79b endogenously expressed on the cell surface (malignant B cell lines, normal B cells in PBMC, CLL patients' B lymphocytes) (human) (UniProt P40259); assay: flow cytometry on malignant B cell lines
[3] = molecular target: CD79b endogenously expressed on the cell surface (malignant B cell lines, normal B cells in PBMC, CLL patients' B lymphocytes) (human) (UniProt P40259); assay: flow cytometry on CD19+ B cells in PBMC of 4 donors
[4] = molecular target: CD79b endogenously expressed on the cell surface (malignant B cell lines, normal B cells in PBMC, CLL patients' B lymphocytes) (human) (UniProt P40259); assay: flow cytometry histogram, untransfected NALM6 cells; Anti-CD79b-PE
[5] = molecular target: CD79b endogenously expressed on the cell surface (malignant B cell lines, normal B cells in PBMC, CLL patients' B lymphocytes) (human) (UniProt P40259); assay: flow cytometry on a cell line expressing endogenous CD79b (not named on the sheet or in the text); MFI (PE)
[6] = molecular target: CD79b long isoform (wild type, 229 amino acids) expressed on Nalm-6 cells (Homo sapiens (Human)) (UniProt P40259); assay: flow cytometry on Nalm-6 cells electroporated with the long isoform
[7] = molecular target: T1, human CD79b recombinant protein; assay: ELISA; human CD79b recombinant protein coated at 1 ug/ml; anti-human IgG HRP; OD 450 nm
[8] = molecular target: CD79b short isoform (125 amino acids, deletion of exon 3) expressed on Nalm-6 cells (Homo sapiens (Human)) (UniProt P40259); assay: flow cytometry on Nalm-6 cells electroporated with the short isoform
[9] = molecular target: CD79b endogenously expressed on the cell surface (malignant B cell lines, normal B cells in PBMC, CLL patients' B lymphocytes) (human) (UniProt P40259); assay: flow cytometry on CLL patients' PBMC
[10] = molecular target: T2, cynomolgus CD79b recombinant protein (cynomolgus); assay: ELISA; cynomolgus CD79b recombinant protein coated at 1 ug/ml; anti-human IgG HRP; OD 450 nm
T2 chain: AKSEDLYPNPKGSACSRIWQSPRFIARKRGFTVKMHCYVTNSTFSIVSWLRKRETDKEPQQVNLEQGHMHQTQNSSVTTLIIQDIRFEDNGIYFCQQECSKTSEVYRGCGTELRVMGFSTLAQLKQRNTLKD
Description: Binding affinities of anti-CD79b antibodies to human and cynomolgus CD79b recombinant proteins were tested by ELISA. 1 ug/ml (in PBS buffer) of human or cynomolgus CD79b recombinant proteins were coated on an ELISA plate overnight. ELISA plates were washed and blocked with blocking buffer (PBS+1% BSA) followed by incubation with serially diluted anti-CD79b primary antibodies. Anti-CD79b antibody binding was quantified using an anti-human IgG HRP secondary antibody (Biolegend Catalog #410902) and HRP substrate.

[11] = molecular target: CD79b endogenously expressed on the cell surface (malignant B cell lines, normal B cells in PBMC, CLL patients' B lymphocytes) (human) (UniProt P40259); assay: flow cytometry on PBMC of CLL Donor 0255 (B lymphocytes); PE goat anti-human IgG Fc; MFI PE
[12] = molecular target: CD79b long isoform (wild type, 229 amino acids) expressed on Nalm-6 cells (Homo sapiens (Human)) (UniProt P40259); assay: flow cytometry histogram, NALM6 cells electroporated with the CD79b long isoform plasmid; Anti-CD79b-PE
[13] = molecular target: CD79b endogenously expressed on the cell surface (malignant B cell lines, normal B cells in PBMC, CLL patients' B lymphocytes) (human) (UniProt P40259); assay: flow cytometry on PBMC of CLL Donor 5716 (B lymphocytes); PE goat anti-human IgG Fc; MFI PE
[14] = molecular target: CD79b short isoform (125 amino acids, deletion of exon 3) expressed on Nalm-6 cells (Homo sapiens (Human)) (UniProt P40259); assay: flow cytometry histogram, NALM6 cells electroporated with the CD79b short isoform plasmid; Anti-CD79b-PE

- binding [1]: binds
- binding [2]: binds
- binding [3]: binds
- binding [4]: binds
- binding [5]: binds
- binding [6]: binds
- binding [7]: binds
- binding [8]: binds
- binding [9]: binds
- binding [10]: binds
- binding [11]: binds
- binding [12]: binds
- binding [13]: binds
- binding [14]: binds
B1: ch23D8 (antibody, human IgG1, kappa, V domains shown)
VH: QSLEESGGGLVTPGGTLTLTCTVSGLSLSSNAINWVRQAPGKGLEWIGMIYSGGRIEYASWAKGRFTISKTSTTVDLKITSPTTEDTATYFCAKGMSPSAHSSDIWGPGTLVTVSA
VL: AYDMTQTPASVEVAVGGTVTIKCQASQSISDNLSWYQQKPGQPPKLLIYDASDLASGVPSRFSGSGSGTEFTLTISDLEPADAATYYCQQDWISSNVDNTFGGGTEVVVKR
notes: Rabbit/human chimeric IgG1 kappa; also called chimeric 23D8
